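Human melanoma cells were exposed to two drugs together for 72 h in 1,536-well plates and read by automated microscopy after fixing and staining. Values are the share of nuclei positive for cleaved PARP as a percentage of the same share in the DMSO control: 100 is the control level, higher means more apoptosis. Every drug was used at one fixed concentration, the higher of two screened. The file gives one value for each pair and line, without errors, so small differences may be noise. The marker varies much from line to line, for technical or biological reasons.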 Only some of the drugs and lines screened are listed, without regard to their results. An entry leaves out what has no value listed here. A dash means that no value is listed here.

All values are for the listed drug together with tipifarnib (0.05 µM): Cn1cncc1[C@@](N)(c1ccc(Cl)cc1)c1ccc2c(c1)c(-c1cccc(Cl)c1)cc(=O)n2C

Drugs:
Src-I1 (10 µM): COc1cc2ncnc(Nc3ccc(Oc4ccccc4)cc3)c2cc1OC
IMD-0354 (0.08 µM): O=C(Nc1cc(C(F)(F)F)cc(C(F)(F)F)c1)c1cc(Cl)ccc1O
nilotinib (1 µM): Cc1cn(-c2cc(NC(=O)c3ccc(C)c(Nc4nccc(-c5cccnc5)n4)c3)cc(C(F)(F)F)c2)cn1
PF-04217903 (5 µM): OCCn1cc(-c2cnc3nnn(Cc4ccc5ncccc5c4)c3n2)cn1
GW9662 (10 µM): O=C(Nc1ccccc1)c1cc([N+](=O)[O-])ccc1Cl
BMS-536924 (1 µM): Cc1cc(N2CCOCC2)cc2[nH]c(-c3c(NC[C@@H](O)c4cccc(Cl)c4)cc[nH]c3=O)nc12
nutlin-3 (0.5 µM): COc1ccc(C2=N[C@@H](c3ccc(Cl)cc3)[C@@H](c3ccc(Cl)cc3)N2C(=O)N2CCNC(=O)C2)c(OC(C)C)c1
PD173074 (0.5 µM): CCN(CC)CCCCNc1ncc2cc(-c3cc(OC)cc(OC)c3)c(NC(=O)NC(C)(C)C)nc2n1
SU6656 (2 µM): CN(C)S(=O)(=O)c1ccc2c(c1)/C(=C/c1cc3c([nH]1)CCCC3)C(=O)N2
dasatinib (0.02 µM): Cc1nc(Nc2ncc(C(=O)Nc3c(C)cccc3Cl)s2)cc(N2CCN(CCO)CC2)n1
GW0742 (10 µM): Cc1cc(SCc2sc(-c3ccc(C(F)(F)F)c(F)c3)nc2C)ccc1OCC(=O)O
decitabine (0.5 µM): Nc1ncn([C@H]2C[C@H](O)[C@@H](CO)O2)c(=O)n1
CHIR-265 (0.4 µM): Cn1c(Nc2ccc(C(F)(F)F)cc2)nc2cc(Oc3ccnc(-c4ncc(C(F)(F)F)[nH]4)c3)ccc21
midostaurin (0.4 µM): CO[C@@H]1[C@H](N(C)C(=O)c2ccccc2)C[C@H]2O[C@]1(C)n1c3ccccc3c3c4c(c5c6ccccc6n2c5c31)C(=O)NC4
STA-4783 (0.03 µM): CN(NC(=O)CC(=O)NN(C)C(=S)c1ccccc1)C(=S)c1ccccc1
CP-690550 (5 µM): C[C@@H]1CCN(C(=O)CC#N)C[C@@H]1N(C)c1ncnc2[nH]ccc12
fludarabine (1 µM): Nc1nc(F)nc2c1ncn2[C@@H]1O[C@H](CO)[C@@H](O)[C@@H]1O
lestaurtinib (0.02 µM): C[C@]12O[C@H](C[C@]1(O)CO)n1c3ccccc3c3c4c(c5c6ccccc6n2c5c31)CNC4=O
GSK0660 (5 µM): COC(=O)c1sccc1S(=O)(=O)Nc1ccc(Nc2ccccc2)cc1OC
MK-1775 (0.1 µM): C=CCn1c(=O)c2cnc(Nc3ccc(N4CCN(C)CC4)cc3)nc2n1-c1cccc(C(C)(C)O)n1
ABT-263 (2 µM): CC1(C)CCC(c2ccc(Cl)cc2)=C(CN2CCN(c3ccc(C(=O)NS(=O)(=O)c4ccc(N[C@H](CCN5CCOCC5)CSc5ccccc5)c(S(=O)(=O)C(F)(F)F)c4)cc3)CC2)C1
BI-D1870 (1 µM): CC(C)CCN1c2nc(Nc3cc(F)c(O)c(F)c3)ncc2N(C)C(=O)C1C (centres unmarked)
XAV939 (10 µM): Oc1nc(-c2ccc(C(F)(F)F)cc2)nc2c1CSCC2

{"partner": "PD173074", "LOX IMVI": 159, "MZ2-MEL": 179, "WM1716": 32.8, "SK-MEL-30": 109, "WM3526": 60.6, "SK-MEL-28": 54.6, "RVH-421": 117, "WM1745": 122}
{"partner": "fludarabine", "LOX IMVI": 93.4, "MZ2-MEL": 115, "WM1716": 187, "SK-MEL-30": 2480, "WM3526": 7550, "SK-MEL-28": 807, "RVH-421": 105, "WM1745": 111}
{"partner": "GW0742", "LOX IMVI": 113, "MZ2-MEL": 49.0, "WM1716": 57.9, "SK-MEL-30": 43.5, "WM3526": 107, "SK-MEL-28": 86.7, "RVH-421": 115, "WM1745": 109}
{"partner": "ABT-263", "LOX IMVI": 62.3, "MZ2-MEL": 531, "WM1716": 2780, "SK-MEL-30": 682, "WM3526": 201, "SK-MEL-28": 387, "RVH-421": 229, "WM1745": 2320}
{"partner": "XAV939", "LOX IMVI": 107, "MZ2-MEL": 86.2, "WM1716": 89.4, "SK-MEL-30": 70.2, "WM3526": 81.3, "SK-MEL-28": 72.0, "RVH-421": 91.0, "WM1745": 113}
{"partner": "BMS-536924", "LOX IMVI": 157, "MZ2-MEL": 241, "WM1716": 273, "SK-MEL-30": 46.8, "WM3526": 266, "SK-MEL-28": 80.4, "RVH-421": 109, "WM1745": 142}
{"partner": "BI-D1870", "LOX IMVI": 136, "MZ2-MEL": 35.7, "WM1716": 229, "SK-MEL-30": 105, "WM3526": 296, "SK-MEL-28": 81.7, "RVH-421": 156, "WM1745": 121}
{"partner": "lestaurtinib", "LOX IMVI": 130, "MZ2-MEL": 191, "WM1716": 163, "SK-MEL-30": 110, "WM3526": 232, "SK-MEL-28": 123, "RVH-421": 94.1, "WM1745": 101}
{"partner": "SU6656", "LOX IMVI": 113, "MZ2-MEL": 513, "WM1716": 135, "SK-MEL-30": 76.9, "WM3526": 323, "SK-MEL-28": 69.9, "RVH-421": 127, "WM1745": 124}
{"partner": "CHIR-265", "LOX IMVI": 93.4, "MZ2-MEL": 184, "WM1716": 47.5, "SK-MEL-30": 233, "WM3526": 1040, "SK-MEL-28": 254, "RVH-421": 104, "WM1745": 114}
{"partner": "Src-I1", "LOX IMVI": 167, "MZ2-MEL": 22.9, "WM1716": 169, "SK-MEL-30": 139, "WM3526": 345, "SK-MEL-28": 586, "RVH-421": 47.9, "WM1745": 169}
{"partner": "GW9662", "LOX IMVI": 88.6, "MZ2-MEL": 126, "WM1716": 138, "SK-MEL-30": 98.3, "WM3526": 109, "SK-MEL-28": 275, "RVH-421": 85.7, "WM1745": 143}
{"partner": "midostaurin", "LOX IMVI": 124, "MZ2-MEL": 586, "WM1716": 210, "SK-MEL-30": 306, "WM3526": 522, "SK-MEL-28": 135, "RVH-421": 63.6, "WM1745": 182}
{"partner": "dasatinib", "LOX IMVI": 532, "MZ2-MEL": 209, "WM1716": 1210, "SK-MEL-30": 104, "WM3526": 175, "SK-MEL-28": 95.9, "RVH-421": 92.2, "WM1745": 156}
{"partner": "IMD-0354", "LOX IMVI": 75.6, "MZ2-MEL": 21.5, "WM1716": 191, "SK-MEL-30": 53.5, "WM3526": 221, "SK-MEL-28": 228, "RVH-421": 53.8, "WM1745": 95.2}
{"partner": "PF-04217903", "LOX IMVI": 157, "MZ2-MEL": 89.8, "WM1716": 97.8, "SK-MEL-30": 50.1, "WM3526": 214, "SK-MEL-28": 53.2, "RVH-421": 109, "WM1745": 94.7}
{"partner": "STA-4783", "LOX IMVI": 133, "MZ2-MEL": 142, "WM1716": 330, "SK-MEL-30": 376, "WM3526": 231, "SK-MEL-28": 228, "RVH-421": 82.0, "WM1745": 447}
{"partner": "MK-1775", "LOX IMVI": 118, "MZ2-MEL": 30.6, "WM1716": 164, "SK-MEL-30": 104, "WM3526": 528, "SK-MEL-28": 195, "RVH-421": 166, "WM1745": 156}
{"partner": "nilotinib", "LOX IMVI": 155, "MZ2-MEL": 31.7, "WM1716": 34.3, "SK-MEL-30": 62.7, "WM3526": 243, "SK-MEL-28": 343, "RVH-421": 101, "WM1745": 137}
{"partner": "CP-690550", "LOX IMVI": 156, "MZ2-MEL": 58.4, "WM1716": 157, "SK-MEL-30": 54.0, "WM3526": 235, "SK-MEL-28": 126, "RVH-421": 35.0, "WM1745": 56.7}
{"partner": "GSK0660", "LOX IMVI": 142, "MZ2-MEL": 69.3, "WM1716": 90.0, "SK-MEL-30": 109, "WM3526": 157, "SK-MEL-28": 46.6, "RVH-421": 124, "WM1745": 116}
{"partner": "decitabine", "LOX IMVI": 91.7, "WM1716": 166, "SK-MEL-30": 68.0, "WM3526": 46.5, "SK-MEL-28": 220, "RVH-421": 114, "WM1745": 68.8}
{"partner": "nutlin-3", "LOX IMVI": 147, "MZ2-MEL": 112, "WM1716": 40.8, "SK-MEL-30": 83.5, "WM3526": 94.0, "SK-MEL-28": 71.0, "RVH-421": 151, "WM1745": 198}

Once more, the final 2:

| Partner | LOX IMVI | MZ2-MEL | WM1716 | SK-MEL-30 | WM3526 | SK-MEL-28 | RVH-421 | WM1745 |
|---|---|---|---|---|---|---|---|---|
| decitabine | 91.7 | - | 166 | 68.0 | 46.5 | 220 | 114 | 68.8 |
| nutlin-3 | 147 | 112 | 40.8 | 83.5 | 94.0 | 71.0 | 151 | 198 |

Data from the primary screen of doi:10.1371/journal.pone.0140310, rounded.